# Reference: patent US20160318891A1, “TONABERSAT PRODRUGS” (PROXIMAGEN LIMITED, priority 2013, published 2016)
# Some entries share one result that the patent states for a list of compounds.
# Test: Pharmacokinetics: tonabersat plasma exposure after dosing prodrug to rats
# Set-up: species or system Sprague Dawley rats
row,SMILES,hydrolysis in vivo to parent drug
1,"CC(=O)c1ccc2c(c1)[C@H](NC(=O)c1ccc(F)c(Cl)c1)[C@H](OC(=O)[C@@H](N)C(C)C)C(C)(C)O2.Cl [Example 2, (3S,4S)-6-Acetyl-4-[(3-chloro-4-fluorobenzene)amido]-2,2-dimethyl-3,4-dihydro-2H-1-benzopyran-3-yl (2S)-2-amino-3-methylbutanoate hydrochloride]",hydrolyse in vivo to generate tonabersat
2,"CC(=O)c1ccc2c(c1)[C@H](NC(=O)c1ccc(F)c(Cl)c1)[C@H](OC(=O)C(C)(C)N)C(C)(C)O2.Cl [Example 6, (3S,4S)-6-Acetyl-4-[(3-chloro-4-fluorobenzene)amido]-2,2-dimethyl-3,4-dihydro-2H-1-benzopyran-3-yl 2-amino-2-methylpropanoate hydrochloride]",hydrolyse in vivo to generate tonabersat
3,"CC(=O)c1ccc2c(c1)[C@H](NC(=O)c1ccc(F)c(Cl)c1)[C@H](OC(=O)[C@H](N)CC(C)C)C(C)(C)O2.Cl [Example 4, (3S,4S)-6-Acetyl-4-[(3-chloro-4-fluorobenzene)amido]-2,2-dimethyl-3,4-dihydro-2H-1-benzopyran-3-yl (2R)-2-amino-4-methylpentanoate hydrochloride]",hydrolyse in vivo to generate tonabersat
4,"CC(=O)c1ccc2c(c1)[C@H](NC(=O)c1ccc(F)c(Cl)c1)[C@H](OCOC[C@@H](O)CO)C(C)(C)O2 [Example 16, N-[(3S,4S)-6-Acetyl-3-{[(2S)-2,3-dihydroxypropoxy]methoxy}-2,2-dimethyl-3,4-dihydro-2H-1-benzopyran-4-yl]-3-chloro-4-fluorobenzamide]",hydrolyse in vivo to generate tonabersat
5,"CC(=O)c1ccc2c(c1)[C@H](NC(=O)c1ccc(F)c(Cl)c1)[C@H](OC(=O)[C@H](N)C(C)C)C(C)(C)O2.Cl [Example 3, (3S,4S)-6-Acetyl-4-[(3-chloro-4-fluorobenzene)amido]-2,2-dimethyl-3,4-dihydro-2H-1-benzopyran-3-yl (2R)-2-amino-3-methylbutanoate hydrochloride]",hydrolyse in vivo to generate tonabersat
6,"CC(=O)c1ccc2c(c1)[C@H](NC(=O)c1ccc(F)c(Cl)c1)[C@H](OC(=O)[C@@H](N)CCC(=O)O)C(C)(C)O2 [Example 14, (4S)-5-{[(3S,4S)-6-Acetyl-4-[(3-chloro-4-fluorobenzene)amido]-2,2-dimethyl-3,4-dihydro-2H-1-benzopyran-3-yl]oxy}-4-amino-5-oxopentanoic acid; trifluoroacetic acid]",hydrolyse in vivo to generate tonabersat
7,"CC(=O)c1ccc2c(c1)[C@H](NC(=O)c1ccc(F)c(Cl)c1)[C@H](OC(=O)CCN)C(C)(C)O2.Cl [Example 7, (3S,4S)-6-Acetyl-4-[(3-chloro-4-fluorobenzene)amido]-2,2-dimethyl-3,4-dihydro-2H-1-benzopyran-3-yl 3-aminopropanoate hydrochloride]",hydrolyse in vivo to generate tonabersat
8,"CC(=O)c1ccc2c(c1)[C@H](NC(=O)c1ccc(F)c(Cl)c1)[C@H](OC(=O)[C@@H](N)CCC(N)=O)C(C)(C)O2.Cl [Example 11, (3S,4S)-6-Acetyl-4-[(3-chloro-4-fluorobenzene)amido]-2,2-dimethyl-3,4-dihydro-2H-1-benzopyran-3-yl (2S)-2-amino-4-carbamoylbutanoate hydrochloride]",hydrolyse in vivo to generate tonabersat
9,"CC(=O)c1ccc2c(c1)[C@H](NC(=O)c1ccc(F)c(Cl)c1)[C@H](OC(=O)[C@H](C)N)C(C)(C)O2.Cl [Example 1, (3S,4S)-6-Acetyl-4-[(3-chloro-4-fluorobenzene)amido]-2,2-dimethyl-3,4-dihydro-2H-1-benzopyran-3-yl (2S)-2-aminopropanoate hydrochloride]",hydrolyse in vivo to generate tonabersat
10,"CC(=O)c1ccc2c(c1)[C@H](NC(=O)c1ccc(F)c(Cl)c1)[C@H](OC(=O)[C@@H](N)CCCNC(=N)N)C(C)(C)O2.Cl.Cl [Example 12, (3S,4S)-6-Acetyl-4-[(3-chloro-4-fluorobenzene)amido]-2,2-dimethyl-3,4-dihydro-2H-1-benzopyran-3-yl (2S)-2-amino-5-carbamimidamidopentanoate dihydrochloride]",hydrolyse in vivo to generate tonabersat
11,"CC(=O)c1ccc2c(c1)[C@H](NC(=O)c1ccc(F)c(Cl)c1)[C@H](OC(=O)[C@@H]1CCCN1)C(C)(C)O2.Cl [Example 5, (3S,4S)-6-Acetyl-4-[(3-chloro-4-fluorobenzene)amido]-2,2-dimethyl-3,4-dihydro-2H-1-benzopyran-3-yl (2S)-pyrrolidine-2-carboxylate hydrochloride]",hydrolyse in vivo to generate tonabersat
12,"CC(=O)c1ccc2c(c1)[C@H](NC(=O)c1ccc(F)c(Cl)c1)[C@H](OC(=O)[C@@H](N)CCCCN)C(C)(C)O2.Cl.Cl [Example 9, (3S,4S)-6-Acetyl-4-[(3-chloro-4-fluorobenzene)amido]-2,2-dimethyl-3,4-dihydro-2H-1-benzopyran-3-yl (2S)-2,6-diaminohexanoate dihydrochloride]",hydrolyse in vivo to generate tonabersat
13,"CC(=O)c1ccc2c(c1)[C@H](NC(=O)c1ccc(F)c(Cl)c1)[C@H](OC(=O)[C@@H](N)CC(N)=O)C(C)(C)O2.Cl [Example 10, (3S,4S)-6-Acetyl-4-[(3-chloro-4-fluorobenzene)amido]-2,2-dimethyl-3,4-dihydro-2H-1-benzopyran-3-yl (2S)-2-amino-3-carbamoylpropanoate hydrochloride]",hydrolyse in vivo to generate tonabersat
14,"CC(=O)c1ccc2c(c1)[C@H](NC(=O)c1ccc(F)c(Cl)c1)[C@H](OC(=O)[C@@H](N)CC(=O)O)C(C)(C)O2 [Example 13, (3S)-4-{[(3S,4S)-6-Acetyl-4-[(3-chloro-4-fluorobenzene)amido]-2,2-dimethyl-3,4-dihydro-2H-1-benzopyran-3-yl]oxy}-3-amino-4-oxobutanoic acid; trifluoroacetic acid]",hydrolyse in vivo to generate tonabersat
15,"CN[C@@H](C)C(=O)O[C@H]1[C@@H](NC(=O)c2ccc(F)c(Cl)c2)c2cc(C(C)=O)ccc2OC1(C)C.Cl [Example 8, (3S,4S)-6-Acetyl-4-[(3-chloro-4-fluorobenzene)amido]-2,2-dimethyl-3,4-dihydro-2H-1-benzopyran-3-yl (2S)-2-(methylamino)propanoate hydrochloride]",hydrolyse in vivo to generate tonabersat
